Measured values: publication doi:10.1101/542795
These are yes or no findings as the source states them, for the method shown. Binding seen in cells or lysates may run through a third protein. Some results given as binding are weak or reduced against the parent protein; the word gives no strength. Sequences can lack the tags named with a protein.

Biological target: HtsRC::V5::APEX1 (Drosophila melanogaster) (UniProt Q02645)
Test: proximity ligation

B1: HtsRC::V5::APEX1 (protein, UniProt Q02645 659-1156)
chain: ALVSQLAQKYAFLYSPGQYMYACMKMAPLMHKVYVIHKVEPVSKHNYPPVNDGNMSIHHNESGAGFMAQESSVISSTPVRNALASVSLPEERNHSILGLSSTPYRTISHFGFNCPLITSPTILLHPEHRSIWQRVAEQREKVVSFIDLTTLSLDNRKLLNVVTSTHPTQCQSQSQSFISEKHIQLEVTPPKRKQRVYSATISSGLDDSLDELDSLMSGLAINMPRSREQDSGLYRSYTFLPSNHALPKDTDANNRDQTDRERPEAEQEESFHCAGDSGIGDSTGRRPRLATTSNDSSIQEAEAYTQGKHVKLTLSSSPTPTATQSPATIEILINVSLRNAECVQTVQTHEQEFRAKLERVIDEEIHYISQQLAFKQRQAELHEQQTTSRAPIATPSFTTMHPPAPASSSSMVHRSNSAPELCHTYSYVAVGDLSTKQDQASPQLPAEGEPLNDILSSLEKELERLLNSVVTAHMLHNKAIIHECRARFSQLADGIVSS
In the case of B1, the binding is reported as “binds”.
